Among the data in publication doi:10.1101/2023.03.09.531914 are binding values, retold here.

Chains of the proteins cited; added tags and fusions are not shown.
UniProt Q6NZF1: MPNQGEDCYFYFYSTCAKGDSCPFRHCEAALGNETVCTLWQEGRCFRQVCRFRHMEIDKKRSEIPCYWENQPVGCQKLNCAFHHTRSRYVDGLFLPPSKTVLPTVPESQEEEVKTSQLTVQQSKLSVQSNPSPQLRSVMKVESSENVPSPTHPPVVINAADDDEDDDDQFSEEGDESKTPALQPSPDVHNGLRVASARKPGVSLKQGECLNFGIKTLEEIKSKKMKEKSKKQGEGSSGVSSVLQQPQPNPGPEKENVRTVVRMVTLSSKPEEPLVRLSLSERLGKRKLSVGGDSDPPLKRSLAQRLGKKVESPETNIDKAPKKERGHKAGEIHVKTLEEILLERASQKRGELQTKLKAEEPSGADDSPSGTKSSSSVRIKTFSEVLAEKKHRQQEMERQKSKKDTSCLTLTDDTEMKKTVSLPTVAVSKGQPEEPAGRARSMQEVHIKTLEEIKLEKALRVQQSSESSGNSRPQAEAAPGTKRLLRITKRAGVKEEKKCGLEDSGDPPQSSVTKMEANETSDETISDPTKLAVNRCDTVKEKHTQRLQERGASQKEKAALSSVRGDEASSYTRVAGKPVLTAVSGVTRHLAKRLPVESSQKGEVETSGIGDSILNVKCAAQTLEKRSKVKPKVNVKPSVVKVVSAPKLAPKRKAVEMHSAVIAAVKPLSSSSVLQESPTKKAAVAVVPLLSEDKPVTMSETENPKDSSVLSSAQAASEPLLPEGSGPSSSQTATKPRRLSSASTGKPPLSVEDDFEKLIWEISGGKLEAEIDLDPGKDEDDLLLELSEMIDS
UniProt P11940: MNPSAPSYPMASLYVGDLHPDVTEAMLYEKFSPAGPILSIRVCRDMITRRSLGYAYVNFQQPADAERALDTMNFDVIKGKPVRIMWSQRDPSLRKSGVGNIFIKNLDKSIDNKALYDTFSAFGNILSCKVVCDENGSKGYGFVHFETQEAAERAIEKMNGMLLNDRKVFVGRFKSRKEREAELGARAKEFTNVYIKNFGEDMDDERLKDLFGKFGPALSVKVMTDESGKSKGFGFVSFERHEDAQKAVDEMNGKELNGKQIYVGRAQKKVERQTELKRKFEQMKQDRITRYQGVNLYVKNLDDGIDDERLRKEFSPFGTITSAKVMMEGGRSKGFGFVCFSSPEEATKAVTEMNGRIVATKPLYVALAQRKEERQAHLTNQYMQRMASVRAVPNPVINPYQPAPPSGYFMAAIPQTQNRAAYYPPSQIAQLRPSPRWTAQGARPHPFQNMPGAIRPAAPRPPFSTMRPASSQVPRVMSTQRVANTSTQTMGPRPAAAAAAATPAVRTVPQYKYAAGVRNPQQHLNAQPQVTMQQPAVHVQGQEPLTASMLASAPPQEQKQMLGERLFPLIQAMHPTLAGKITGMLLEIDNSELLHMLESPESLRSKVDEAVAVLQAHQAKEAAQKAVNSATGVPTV
UniProt Q13838: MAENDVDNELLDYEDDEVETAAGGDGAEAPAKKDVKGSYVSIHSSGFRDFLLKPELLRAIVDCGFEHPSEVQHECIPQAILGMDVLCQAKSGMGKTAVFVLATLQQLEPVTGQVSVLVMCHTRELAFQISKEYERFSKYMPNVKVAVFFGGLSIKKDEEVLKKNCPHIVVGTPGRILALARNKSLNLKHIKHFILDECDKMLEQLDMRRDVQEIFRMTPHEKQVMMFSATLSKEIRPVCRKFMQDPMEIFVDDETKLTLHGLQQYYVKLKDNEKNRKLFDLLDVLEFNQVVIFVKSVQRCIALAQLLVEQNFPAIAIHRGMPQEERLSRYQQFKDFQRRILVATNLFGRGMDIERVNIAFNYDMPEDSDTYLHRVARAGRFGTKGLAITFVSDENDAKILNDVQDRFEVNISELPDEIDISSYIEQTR

Assay in all cases: affinity purification with mass spectrometry
Assay [1] deals with GFP-ZC3H11A(wt) (human) (UniProt O75152).
Assay [2] has the same target. This is another data set of the same source.
The target of a further assay is T1, GFP-ZC3H11A(dZF) (human) (UniProt O75152).
T1 sequence: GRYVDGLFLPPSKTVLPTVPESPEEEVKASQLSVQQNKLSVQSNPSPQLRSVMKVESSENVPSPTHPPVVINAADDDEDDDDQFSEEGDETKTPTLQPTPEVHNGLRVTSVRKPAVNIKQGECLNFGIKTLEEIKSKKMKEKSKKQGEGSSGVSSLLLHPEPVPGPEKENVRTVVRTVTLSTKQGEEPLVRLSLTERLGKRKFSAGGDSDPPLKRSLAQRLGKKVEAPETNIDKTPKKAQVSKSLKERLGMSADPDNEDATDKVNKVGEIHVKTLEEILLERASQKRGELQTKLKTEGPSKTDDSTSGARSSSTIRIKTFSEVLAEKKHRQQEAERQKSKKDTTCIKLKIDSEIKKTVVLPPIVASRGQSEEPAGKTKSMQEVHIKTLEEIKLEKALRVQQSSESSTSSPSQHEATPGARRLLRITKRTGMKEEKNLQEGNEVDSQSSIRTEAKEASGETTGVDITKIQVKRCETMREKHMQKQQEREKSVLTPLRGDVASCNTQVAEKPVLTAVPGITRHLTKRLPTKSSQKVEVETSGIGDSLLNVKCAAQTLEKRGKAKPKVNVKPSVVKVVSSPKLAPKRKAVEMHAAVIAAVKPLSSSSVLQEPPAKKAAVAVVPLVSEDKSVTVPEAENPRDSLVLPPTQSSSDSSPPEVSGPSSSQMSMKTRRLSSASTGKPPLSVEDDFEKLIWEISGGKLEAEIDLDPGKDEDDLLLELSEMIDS

For assay [3], the target named is ZC3H11A (endogenous, HeLa cells) (human (endogenous in HeLa)) (UniProt O75152).
In assay [4] the target is ZC3H11A(wt)-Flag (expressed in HeLa cells) (human) (UniProt O75152).
The target of assay [5] is ZC3H11A (endogenous, mouse embryonic stem cells) (mouse (endogenous in mESCs)) (UniProt Q6NZF1).

Read-outs that look alike come from different tables or passages of the source. These are yes or no findings as the source states them, for the method shown. In cells and extracts the contact can be indirect. A yes stands for co-enrichment or nearness to the bait. Other partners may have been found. For some of these results: Sequences can lack the tags named with a protein.

For “PABPC1 (endogenous, HeLa cells) (from UniProt P11940 1-636)”, the binding result in the assay with GFP-ZC3H11A(wt) (human) [1] is given as “binds”.
Take “DDX39B (endogenous, HeLa cells) (from UniProt Q13838 1-428)”: the binding result with GFP-ZC3H11A(wt) (human) [1] is reported as “binds”.

B1: THOC1 (endogenous, HeLa cells) (protein, UniProt Q96FV9 1-657)
chain: MSPTPPLFSLPEARTRFTKSTREALNNKNIKPLLSTFSQVPGSENEKKCTLDQAFRGILEEEIINHSSCENVLAIISLAIGGVTEGICTASTPFVLLGDVLDCLPLDQCDTIFTFVEKNVATWKSNTFYSAGKNYLLRMCNDLLRRLSKSQNTVFCGRIQLFLARLFPLSEKSGLNLQSQFNLENVTVFNTNEQESTLGQKHTEDREEGMDVEEGEMGDEEAPTTCSIPIDYNLYRKFWSLQDYFRNPVQCYEKISWKTFLKYSEEVLAVFKSYKLDDTQASRKKMEELKTGGEHVYFAKFLTSEKLMDLQLSDSNFRRHILLQYLILFQYLKGQVKFKSSNYVLTDEQSLWIEDTTKSVYQLLSENPPDGERFSKMVEHILNTEENWNSWKNEGCPSFVKERTSDTKPTRIIRKRTAPEDFLGKGPTKKILMGNEELTRLWNLCPDNMEACKSETREHMPTLEEFFEEAIEQADPENMVENEYKAVNNSNYGWRALRLLARRSPHFFQPTNQQFKSLPEYLENMVIKLAKELPPPSEEIKTGEDEDEEDNDALLKENESPDVRRDKPVTGEQIEVFANKLGEQWKILAPYLEMKDSEIRQIECDSEDMKMRAKQLLVAWQDQEGVHATPENLINALNKSGLSDLAESLTNDNETNS
As to B1, the binding result in the assay with GFP-ZC3H11A(wt) (human) [2] is listed as “binds”.

B2: POLDIP3 (endogenous, HeLa cells) (protein, UniProt Q9BY77 1-421)
chain: MADISLDELIRKRGAAAKGRLNARPGVGGVRSRVGIQQGLLSQSTRTATFQQRFDARQKIGLSDARLKLGVKDAREKLLQKDARFRIKGKVQDAREMLNSRKQQTTVPQKPRQVADAREKISLKRSSPAAFINPPIGTVTPALKLTKTIQVPQQKAMAPLHPHPAGMRINVVNNHQAKQNLYDLDEDDDGIASVPTKQMKFAASGGFLHHMAGLSSSKLSMSKALPLTKVVQNDAYTAPALPSSIRTKALTNMSRTLVNKEEPPKELPAAEPVLSPLEGTKMTVNNLHPRVTEEDIVELFCVCGALKRARLVHPGVAEVVFVKKDDAITAYKKYNNRCLDGQPMKCNLHMNGNVITSDQPILLRLSDSPSMKKESELPRRVNSASSSNPPAEVDPDTILKALFKSSGASVTTQPTEFKIKL
Consider B2, for which the binding result (with GFP-ZC3H11A(dZF) (human); with GFP-ZC3H11A(wt) (human) [2]; in assay [3]) was “binds” each time.

B3: THOC6 (endogenous, HeLa cells) (protein, UniProt Q86W42 1-341)
chain: MERAVPLAVPLGQTEVFQALQRLHMTIFSQSVSPCGKFLAAGNNYGQIAIFSLSSALSSEAKEESKKPVVTFQAHDGPVYSMVSTDRHLLSAGDGEVKAWLWAEMLKKGCKELWRRQPPYRTSLEVPEINALLLVPKENSLILAGGDCQLHTMDLETGTFTRVLRGHTDYIHCLALRERSPEVLSGGEDGAVRLWDLRTAKEVQTIEVYKHEECSRPHNGRWIGCLATDSDWMVCGGGPALTLWHLRSSTPTTIFPIRAPQKHVTFYQDLILSAGQGRCVNQWQLSGELKAQVPGSSPGLLSLSLNQQPAAPECKVLTAAGNSCRVDVFTNLGYRAFSLSF
B3: the binding entry with GFP-ZC3H11A(wt) (human) [2] is listed as “binds”.

B4: PABPN1 (endogenous, HeLa cells) (protein, UniProt Q86U42 1-306)
chain: MAAAAAAAAAAGAAGGRGSGPGRRRHLVPGAGGEAGEGAPGGAGDYGNGLESEELEPEELLLEPEPEPEPEEEPPRPRAPPGAPGPGPGSGAPGSQEEEEEPGLVEGDPGDGAIEDPELEAIKARVREMEEEAEKLKELQNEVEKQMNMSPPPGNAGPVIMSIEEKMEADARSIYVGNVDYGATAEELEAHFHGCGSVNRVTILCDKFSGHPKGFAYIEFSDKESVRTSLALDESLFRGRQIKVIPKRTNRPGISTTDRGFPRARYRARTTNYNSSRSRFYSGFNSRPRGRVYRGRARATSWYSPY
Turning to B4, the binding entry (with GFP-ZC3H11A(wt) (human) [2]; in assay [3]; in assay [4]) was “binds” in each case.

B5: CHTOP (endogenous, mouse embryonic stem cells) (protein, UniProt Q9CY57 1-249)
chain: MAAQSAPKVVLKSTTKMSLNERFTNMLKNKQPMPVNIRASMQQQQQLASARNRRLAQQMENRPSVQAALKLKQKSLKQRLGKSNIQARLGRPIGALARGAIGGRGLPIIQRGLPRGGLRGGRATRTLLRGGMSLRGQNLLRGGRAVAPRMGLRRGGVRGRGGPGRGGLGRGAMGRGGIGGRGRGMIGRGRGGFGGRGRGRGRGRGALTRPVLTKEQLDNQLDAYMSKTKGHLDAELDAYMAQTDPETND
In the case of B5, in assay [5], the binding result is given as “binds”.

B6: POLDIP3 (endogenous, mouse embryonic stem cells) (protein, UniProt Q8BG81 1-420)
chain: MADLSLDELIRKRGTAAKGRLSVRPGIGGVRSRVGIQHSLVNQPARTATFQQRFDARQKIGLSDARLKLGVKDAREKLLQKDARFRIKGKVQDAREMLNSRKQQGTVPQKPRQVADAREKISLKRRSPAAFTSPPIGTVTPALKLTKTIQVPQQKAMVPLHAHPAGMRINVVNNHQAKQNLYDLDEDDDIVVPVPPKQMKFAATGSLVHHMTGLSSSKLSMSKALPLTKVVQNDAYTAPVLPSSVRTKALTSMSRTLVNKEEPPKELPPAEPVLSPLEGTKMTVNNLHPRVTEEDIVELFCVCGALKRARLVHPGVAEVVFVKKDDAITAYKKYNNRCLDGQPMKCNLHMNGNVITSDQPILLRLSDSPSVKKESELPRRGNPASSNPPAEVDPDTVLRALFKSSGASVTTQPTEFKIKL
On to B6, for which, in assay [5], the binding result was “binds”.

B7: PABPN1 (endogenous, mouse embryonic stem cells) (protein, UniProt Q8CCS6 1-302)
chain: MAAAAAAAAAAGAAGGRGSGPGRRRHLVPGAGGEAGEGDPGGAGDYGNGLESEELEPGELLPEPEPEEEPPRPRAPPGAPGPGPGSGAPGSQEEEEEPGLVEADPGDGAIEDPELEAIKARVREMEEEAEKLKELQNEVEKQMNMSPPPGNAGPVIMSLEEKMEADARSIYVGNVDYGATAEELEAHFHGCGSVNRVTILCDKFSGHPKGFAYIEFSDKESVRTSLALDESLFRGRQIKVIPKRTNRPGISTTDRGFPRSRYRARTTNYNSSRSRFYSGFNSRPRGRIYRGRARATSWYSPY
As to B7, the binding entry in assay [5] is reported as “binds”.
